Measured values taken from the supplement of paper PMC10849652.
Some of the results follow.

Amino acid sequences for entries named in this document (tags omitted). A change or cut given only in a name is not applied to a line headed by its entry.
UniProt Q5T481: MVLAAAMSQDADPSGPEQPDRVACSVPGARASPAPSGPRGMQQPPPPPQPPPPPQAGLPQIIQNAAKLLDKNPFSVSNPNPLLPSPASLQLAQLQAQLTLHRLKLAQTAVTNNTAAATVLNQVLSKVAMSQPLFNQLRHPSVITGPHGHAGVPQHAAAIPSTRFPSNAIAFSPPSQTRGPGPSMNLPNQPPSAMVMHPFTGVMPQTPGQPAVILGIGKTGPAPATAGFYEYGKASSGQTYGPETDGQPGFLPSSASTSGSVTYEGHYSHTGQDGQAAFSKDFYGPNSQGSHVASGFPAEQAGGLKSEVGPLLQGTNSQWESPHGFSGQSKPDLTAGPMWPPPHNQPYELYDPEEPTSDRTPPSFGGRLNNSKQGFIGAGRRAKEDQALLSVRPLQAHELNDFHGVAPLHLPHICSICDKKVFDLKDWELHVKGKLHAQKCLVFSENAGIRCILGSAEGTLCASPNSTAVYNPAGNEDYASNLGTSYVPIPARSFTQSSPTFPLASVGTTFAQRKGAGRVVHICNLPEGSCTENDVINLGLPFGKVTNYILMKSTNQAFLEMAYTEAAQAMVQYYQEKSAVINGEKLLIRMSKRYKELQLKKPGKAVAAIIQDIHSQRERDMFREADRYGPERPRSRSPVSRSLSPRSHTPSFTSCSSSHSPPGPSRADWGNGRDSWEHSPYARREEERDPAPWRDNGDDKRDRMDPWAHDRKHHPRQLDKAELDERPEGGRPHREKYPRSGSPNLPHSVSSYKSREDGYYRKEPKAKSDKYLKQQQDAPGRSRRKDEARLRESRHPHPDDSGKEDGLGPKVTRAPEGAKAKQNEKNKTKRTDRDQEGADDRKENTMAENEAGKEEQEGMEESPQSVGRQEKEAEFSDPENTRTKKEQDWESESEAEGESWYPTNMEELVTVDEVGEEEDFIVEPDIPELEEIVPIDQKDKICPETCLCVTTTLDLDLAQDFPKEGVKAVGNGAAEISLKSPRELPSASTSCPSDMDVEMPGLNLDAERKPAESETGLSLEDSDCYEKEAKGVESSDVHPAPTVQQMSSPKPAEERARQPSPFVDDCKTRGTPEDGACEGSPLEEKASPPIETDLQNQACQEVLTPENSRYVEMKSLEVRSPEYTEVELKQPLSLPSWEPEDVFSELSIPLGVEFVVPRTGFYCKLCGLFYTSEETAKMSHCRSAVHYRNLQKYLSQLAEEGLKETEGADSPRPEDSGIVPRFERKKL
UniProt Q8N0T1: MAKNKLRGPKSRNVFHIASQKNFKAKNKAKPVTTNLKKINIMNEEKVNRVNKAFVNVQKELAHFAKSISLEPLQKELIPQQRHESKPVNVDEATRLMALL
UniProt O15211: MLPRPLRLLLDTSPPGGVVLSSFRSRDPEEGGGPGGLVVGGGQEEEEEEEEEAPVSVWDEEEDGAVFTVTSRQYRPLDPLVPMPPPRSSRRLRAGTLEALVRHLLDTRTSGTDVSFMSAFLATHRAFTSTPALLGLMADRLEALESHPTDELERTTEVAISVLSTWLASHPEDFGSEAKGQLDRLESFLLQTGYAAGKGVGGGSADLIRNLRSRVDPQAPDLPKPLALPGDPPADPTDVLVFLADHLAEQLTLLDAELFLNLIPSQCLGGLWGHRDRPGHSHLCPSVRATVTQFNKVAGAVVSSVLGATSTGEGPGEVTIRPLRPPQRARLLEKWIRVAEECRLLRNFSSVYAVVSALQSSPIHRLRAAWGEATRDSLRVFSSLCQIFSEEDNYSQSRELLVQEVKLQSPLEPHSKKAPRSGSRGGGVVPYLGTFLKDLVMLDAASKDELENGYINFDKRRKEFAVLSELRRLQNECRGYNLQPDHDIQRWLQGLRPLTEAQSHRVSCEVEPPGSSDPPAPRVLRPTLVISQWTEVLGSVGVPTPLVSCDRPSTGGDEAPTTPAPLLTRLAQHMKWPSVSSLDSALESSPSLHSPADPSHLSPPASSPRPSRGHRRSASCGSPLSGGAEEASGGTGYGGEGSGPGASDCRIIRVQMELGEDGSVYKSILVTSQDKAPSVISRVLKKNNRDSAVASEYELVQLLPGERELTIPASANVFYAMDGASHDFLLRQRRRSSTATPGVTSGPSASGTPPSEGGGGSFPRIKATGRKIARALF
UniProt Q8NC44: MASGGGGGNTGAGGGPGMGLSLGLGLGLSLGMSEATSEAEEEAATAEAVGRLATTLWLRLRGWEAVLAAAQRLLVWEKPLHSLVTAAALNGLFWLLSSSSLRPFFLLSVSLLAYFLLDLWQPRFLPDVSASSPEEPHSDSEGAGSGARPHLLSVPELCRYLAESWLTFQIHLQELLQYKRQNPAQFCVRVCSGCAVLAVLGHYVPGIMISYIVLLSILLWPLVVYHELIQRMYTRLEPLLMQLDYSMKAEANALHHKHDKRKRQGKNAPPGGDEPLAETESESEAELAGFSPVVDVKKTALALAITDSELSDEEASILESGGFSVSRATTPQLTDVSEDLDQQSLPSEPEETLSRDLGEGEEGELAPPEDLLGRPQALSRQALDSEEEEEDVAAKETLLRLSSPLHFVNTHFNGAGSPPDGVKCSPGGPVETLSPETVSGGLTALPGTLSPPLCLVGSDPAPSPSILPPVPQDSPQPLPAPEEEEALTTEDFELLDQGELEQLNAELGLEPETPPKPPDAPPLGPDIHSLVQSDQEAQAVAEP
UniProt P35250, whole entry, looked up: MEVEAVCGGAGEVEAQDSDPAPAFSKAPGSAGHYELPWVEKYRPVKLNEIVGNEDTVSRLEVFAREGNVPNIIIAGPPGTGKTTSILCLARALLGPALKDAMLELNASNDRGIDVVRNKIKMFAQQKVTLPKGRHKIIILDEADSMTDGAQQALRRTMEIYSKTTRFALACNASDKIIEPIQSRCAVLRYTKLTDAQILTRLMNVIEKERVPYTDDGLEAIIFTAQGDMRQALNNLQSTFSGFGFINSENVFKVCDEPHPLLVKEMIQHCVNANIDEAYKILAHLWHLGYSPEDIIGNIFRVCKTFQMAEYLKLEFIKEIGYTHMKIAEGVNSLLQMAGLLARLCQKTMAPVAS
UniProt Q8N0V3: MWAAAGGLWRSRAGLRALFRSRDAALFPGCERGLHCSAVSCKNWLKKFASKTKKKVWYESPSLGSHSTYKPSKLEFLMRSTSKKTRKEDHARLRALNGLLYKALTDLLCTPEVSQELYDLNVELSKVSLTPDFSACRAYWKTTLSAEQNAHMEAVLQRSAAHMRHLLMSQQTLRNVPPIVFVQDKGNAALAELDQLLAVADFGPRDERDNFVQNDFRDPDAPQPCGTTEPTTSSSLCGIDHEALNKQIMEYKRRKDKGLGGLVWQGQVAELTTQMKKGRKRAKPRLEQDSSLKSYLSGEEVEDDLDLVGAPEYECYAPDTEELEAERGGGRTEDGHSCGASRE
UniProt Q96IC2: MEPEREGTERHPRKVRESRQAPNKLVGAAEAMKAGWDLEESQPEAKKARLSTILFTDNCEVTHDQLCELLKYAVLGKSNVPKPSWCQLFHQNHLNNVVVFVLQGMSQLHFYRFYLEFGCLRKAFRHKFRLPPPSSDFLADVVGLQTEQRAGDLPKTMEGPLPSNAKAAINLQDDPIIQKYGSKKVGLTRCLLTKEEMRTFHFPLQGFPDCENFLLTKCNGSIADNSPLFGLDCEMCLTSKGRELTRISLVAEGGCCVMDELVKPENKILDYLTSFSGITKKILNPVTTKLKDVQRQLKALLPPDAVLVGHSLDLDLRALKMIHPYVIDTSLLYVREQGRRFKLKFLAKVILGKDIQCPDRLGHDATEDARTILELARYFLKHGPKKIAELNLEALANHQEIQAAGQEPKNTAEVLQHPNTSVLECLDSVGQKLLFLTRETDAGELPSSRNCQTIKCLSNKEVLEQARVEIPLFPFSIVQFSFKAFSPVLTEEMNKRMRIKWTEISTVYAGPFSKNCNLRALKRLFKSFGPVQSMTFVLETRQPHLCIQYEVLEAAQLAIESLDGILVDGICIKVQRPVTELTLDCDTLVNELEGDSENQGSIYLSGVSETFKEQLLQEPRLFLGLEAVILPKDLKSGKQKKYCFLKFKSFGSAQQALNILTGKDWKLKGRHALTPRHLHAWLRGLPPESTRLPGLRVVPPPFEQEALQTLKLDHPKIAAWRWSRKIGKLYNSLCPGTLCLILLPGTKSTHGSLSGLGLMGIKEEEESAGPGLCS
UniProt Q8IUW5: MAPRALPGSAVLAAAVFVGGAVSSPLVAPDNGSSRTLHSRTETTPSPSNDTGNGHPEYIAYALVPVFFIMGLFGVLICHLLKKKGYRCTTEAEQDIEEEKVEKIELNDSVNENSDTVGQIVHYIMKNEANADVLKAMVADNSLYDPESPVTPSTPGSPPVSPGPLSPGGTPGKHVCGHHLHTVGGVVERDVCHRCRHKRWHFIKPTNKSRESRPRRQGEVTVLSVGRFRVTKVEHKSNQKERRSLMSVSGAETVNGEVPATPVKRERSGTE
UniProt Q6NTF9: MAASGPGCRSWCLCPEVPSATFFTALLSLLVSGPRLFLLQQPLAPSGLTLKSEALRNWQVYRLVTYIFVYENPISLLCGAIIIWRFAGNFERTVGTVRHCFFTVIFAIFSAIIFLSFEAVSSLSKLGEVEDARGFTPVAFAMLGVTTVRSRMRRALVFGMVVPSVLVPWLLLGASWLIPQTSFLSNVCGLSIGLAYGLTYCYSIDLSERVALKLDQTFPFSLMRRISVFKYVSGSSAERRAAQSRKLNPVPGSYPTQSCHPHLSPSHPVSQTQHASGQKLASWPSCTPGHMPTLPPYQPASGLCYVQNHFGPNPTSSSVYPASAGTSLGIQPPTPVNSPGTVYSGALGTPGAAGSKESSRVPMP

Tests used:
Assay in all cases: log2 fold change, soluble protein after heating vs DMSO (PISA); higher = thermal stabilisation; K562 lysate, 10 uM; active = over 0.2 and 3.5 SD of the protein, either way, in both replicates (recomputed)
erlotinib = compound: C#Cc1cccc(Nc2ncnc3cc(OCCOC)c(OCCOC)cc23)c1 [erlotinib]
Procedure, shortened: (§1)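 Log-two fold change in thermal stability relative to solvent controls is reported from duplicates. For each sample, crude K562 extract from dounce-homogenised pellets in PBS pH 7.4 with 1 mM MgCl2, at 1 mg/mL protein, was treated with 10 μM compound for 30 min. Aliquots heated for 3 min across 48°C-58°C were pooled, brought to 0.5% NP-40 at 4°C and cleared at 21,000xg for 90 min. The supernatant was quantified by TMTpro 16plex LC-MS/MS with channel sums equalised.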

[1] = compound: C/C(=N\NC(=O)C1=CC(=CC=C1)S(=O)(=O)N2CCOCC2)/C3=C(C=CC(=C3)Cl)O
Procedure, shortened: as §1

[2] = compound: C1=CC(=CC=C1C2=NC3=C(N2)C=C(C=C3)C(=O)N)OC4=CC=C(C=C4)Cl
Procedure, shortened: as §1

[3] = compound: C1=CC2=C(C=CC(=C2)/C=C\3/C(=O)NC(=NCC4=CC=CS4)S3)N=C1
Procedure, shortened: as §1

[4] = compound: C1=CC2=NC=CN=C2C=C1/C=C/3\C(=O)NC(=O)S3
Procedure, shortened: as §1

[5] = compound: C1=CC=C(C=C1)C2=NC(=C(N2)C3=CC=NC=C3)C4=CC(=C(C=C4)Cl)O
Procedure, shortened: as §1

[6] = compound: C1=CC=C2C(=C1)C3=NNC4=CC=CC(=C43)C2=O
Procedure, shortened: as §1

IRAK-1-4 Inhibitor I = compound: C1COCCN1CCN2C3=CC=CC=C3N=C2NC(=O)C4=CC(=CC=C4)[N+](=O)[O-] [IRAK-1-4 Inhibitor I]
Procedure, shortened: as §1

ibrutinib = compound: C=CC(=O)N1CCC[C@@H](n2nc(-c3ccc(Oc4ccccc4)cc3)c3c(N)ncnc32)C1 [ibrutinib]
Procedure, shortened: as §1

ralimetinib = compound: CC(C)(C)Cn1c(N)nc2ccc(-c3[nH]c(C(C)(C)C)nc3-c3ccc(F)cc3)nc21 [ralimetinib]
Procedure, shortened: as §1

[7] = compound: CC(C)(O)CC(=O)NCCn1ccc2ncnc(Nc3ccc(Oc4cccc(C(F)(F)F)c4)c(Cl)c3)c21
Procedure, shortened: as §1

[8] = compound: CC(C)C1=C2N=C(C=C(N2N=C1)NCC3=CC=CC=C3)NCCCCCCN
Procedure, shortened: as §1

[9] = compound: CC1=C(C(CC(=O)N1)C2=CC=C(C=C2)C(F)(F)F)C(=O)NC3=C(C=C4C(=C3)C=NN4)F
Procedure, shortened: as §1

[10] = compound: CC1=C(C2=C(C=C1)C(=O)C3=CC=CC=C3N2CCCN)C
Procedure, shortened: as §1

[11] = compound: CC1=C(C=C(C=C1)NC(=O)C2=CC(=CC=C2)N(C)C)NC(=O)C3=CC=C(C=C3)O
Procedure, shortened: as §1

[12] = compound: C1CCN(C1)C(=O)NC2=CC=CC(=C2)NC3=NC=C(C(=N3)NCCC4=CN=CN4)Br
Procedure, shortened: as §1

[13] = compound: C1CN(CCC1(CC2=CC=C(C=C2)Cl)N)C3=NC=NC4=C3C=CN4
Procedure, shortened: as §1

[14] = compound: CC1=C(C=C(C=C1)NC(=O)C2=CC(=CC=C2)C(C)(C)C#N)NC3=CC4=C(C=C3)N=CN(C4=O)C
Procedure, shortened: as §1

[15] = compound: CC(=O)c1cnc2ccc(-c3cc(Cl)c(O)c(Cl)c3)nc2c1N[C@H]1CC[C@H](CN(C)C)CC1
Procedure, shortened: as §1

[16] = compound: CC1=CC=C(C=C1)SC2=C3C=C(SC3=CN=C2)C(=O)N
Procedure, shortened: as §1

Measured: log2 fold change

RBM20 (UniProt Q5T481)
inactive: erlotinib 0.052 | [1] -0.442 | [2] 0.002 | [3] -0.236 | [4] -0.157 | [5] -0.181 | [6] -0.393 | IRAK-1-4 Inhibitor I 0.263 | ibrutinib -0.051 | ralimetinib 0.113 | [7] -0.351 | [8] 0.024 | [9] -0.017 | [10] -0.022 | [11] -0.41

RBIS (UniProt Q8N0T1)
inactive: erlotinib 0.028 | [1] -0.093 | [2] 0.012 | [3] -0.031 | [4] -0.006 | [5] -0.097 | [6] 0.124 | [12] -0.029 | [13] 0.026 | IRAK-1-4 Inhibitor I 0.173 | ibrutinib 0.057 | ralimetinib -0.033 | [7] -0.148 | [8] -0.057 | [10] -0.013 | [14] 0.029 | [11] 0.05

RGL2 (UniProt O15211)
inactive: erlotinib -0.306 | [2] -0.034 | [5] 0.036 | IRAK-1-4 Inhibitor I 0.044 | [15] 0.057 | ralimetinib -0.143 | [7] 0.206 | [8] 0.173 | [9] -0.172 | [10] -0.147 | [14] -0.022 | [11] -0.038 | [16] -0.001

RBM47
inactive: erlotinib 0.351 | [1] 0.143 | [2] 0.283 | [3] 0.142 | [5] -0.248 | [6] -0.155 | IRAK-1-4 Inhibitor I 0.007 | [15] 0.144 | ralimetinib 0.021 | [7] -0.114 | [8] -0.072 | [9] -0.069 | [10] -0.054 | [11] 0.065 | [16] -0.017

RETREG2 (UniProt Q8NC44)
inactive: erlotinib -0.08 | [1] 0.036 | [2] -0.115 | [3] -0.055 | [4] 0.049 | [5] 0.035 | [6] -0.063 | [12] 0.022 | [13] 0.075 | IRAK-1-4 Inhibitor I 0.106 | ibrutinib 0.011 | [15] 0.009 | ralimetinib 0.071 | [7] -0.129 | [8] 0.062 | [9] 0.127 | [14] 0.051 | [11] 0.116 | [16] 0.011

RFC2 (UniProt P35250)
inactive: erlotinib -0.004 | [1] 0.017 | [2] -0.059 | [3] -0.017 | [4] 0.018 | [5] 0.004 | [6] -0.013 | [12] -0.011 | [13] -0.031 | IRAK-1-4 Inhibitor I -0.013 | ibrutinib 0.009 | [15] 0.018 | ralimetinib 0.036 | [7] 0.044 | [8] -0.002 | [9] -0.001 | [10] 0.011 | [14] 0.008 | [11] 0.048 | [16] -0.001

REV3L (UniProt O60673)
inactive: erlotinib 0.081 | [1] -0.176 | [2] 0.024 | [3] -0.064 | [4] -0.031 | [5] -0.013 | [6] 0.144 | [12] 0.051 | [13] 0.118 | IRAK-1-4 Inhibitor I 0.045 | ibrutinib 0 | [15] 0.034 | ralimetinib 0.018 | [7] -0.296 | [8] 0.064 | [9] 0.085 | [10] -0.12 | [14] 0.316 | [11] 0.024 | [16] -0.116

RBFA (UniProt Q8N0V3)
inactive: erlotinib -0.014 | [2] 0.008 | [5] -0.158 | IRAK-1-4 Inhibitor I -0.018 | ralimetinib 0.046 | [7] 0.037 | [8] -0.111 | [9] -0.127 | [14] 0.121 | [11] -0.041

REXO5 (UniProt Q96IC2)
inactive: erlotinib 0.027 | [1] -0.06 | [2] 0.029 | [3] -0.034 | [4] -0.021 | [5] 0.021 | [6] 0.021 | [12] -0.057 | [13] -0.02 | IRAK-1-4 Inhibitor I -0.011 | ibrutinib -0.063 | ralimetinib 0.02 | [7] -0.065 | [8] -0.04 | [9] 0.015 | [10] -0.004 | [11] 0.088

RELL1 (UniProt Q8IUW5)
inactive: erlotinib 0.228

RHBDD2 isoform 2 (UniProt Q6NTF9)
inactive: erlotinib -0.025

2 consecutive entries out of the list so far, for reference:
REV3L (UniProt O60673)
inactive: erlotinib 0.081 | [1] -0.176 | [2] 0.024 | [3] -0.064 | [4] -0.031 | [5] -0.013 | [6] 0.144 | [12] 0.051 | [13] 0.118 | IRAK-1-4 Inhibitor I 0.045 | ibrutinib 0 | [15] 0.034 | ralimetinib 0.018 | [7] -0.296 | [8] 0.064 | [9] 0.085 | [10] -0.12 | [14] 0.316 | [11] 0.024 | [16] -0.116

RBFA (UniProt Q8N0V3)
inactive: erlotinib -0.014 | [2] 0.008 | [5] -0.158 | IRAK-1-4 Inhibitor I -0.018 | ralimetinib 0.046 | [7] 0.037 | [8] -0.111 | [9] -0.127 | [14] 0.121 | [11] -0.041
